Assay results published in article PMC10315267.
Results are given in words; binding and its absence hold for the method and conditions named. Binding seen in cells or lysates may run through a third protein. Here binding means that the protein was enriched with, or labelled near, the bait; the list need not be complete. No binding means not detected with the bait.

Target: T1, REVEILLE 8 (RVE8)-HFC (Arabidopsis thaliana) (UniProt Q8RWU3)
T1 sequence: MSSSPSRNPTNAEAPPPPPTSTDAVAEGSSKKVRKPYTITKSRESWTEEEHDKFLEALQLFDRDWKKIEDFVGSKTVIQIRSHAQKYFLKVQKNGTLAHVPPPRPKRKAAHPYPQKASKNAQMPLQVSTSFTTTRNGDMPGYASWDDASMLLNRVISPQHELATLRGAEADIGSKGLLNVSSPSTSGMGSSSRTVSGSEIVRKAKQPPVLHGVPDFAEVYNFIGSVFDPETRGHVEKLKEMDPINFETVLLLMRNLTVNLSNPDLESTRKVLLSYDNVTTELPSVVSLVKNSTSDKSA
Experiment: affinity purification with mass spectrometry; HFC-tagged bait (RVE8-, LNK1- or LNK2-HFC) from extracts of 10-d-old Arabidopsis seedlings (12 h light:12 h dark, 22 °C) harvested at ZT5; FLAG-M2 beads, 3x-FLAG peptide elution, then His-tag beads; LC-MS/MS; hits found in GFP-HFC or Col-0 controls excluded

B1: SUPPRESSOR OF PHYA-105 (SPA1) (protein, UniProt Q9SYX2 1-1029)
chain: MPVMERVAEETVATNNIQLKARVDDVPCNKLDARHNDMVIQSETANSDCPGSSAHRNVDLTKPPPPEEAAGAKLSVEELTLGNYRIVQGSNNTNVDSPRAGKFEHLYRLARGSAFRAGDGDLDSQPRDMDQMLSRIRQQLAGAPSERQNLKPFMSRRSDQNLEAFSERLRAAGENSIMNAPALISEGVQMKTPVSSSNFSQLLLKRAMKGKGVVGKNQETPPEFVSDQDLGSKEKKLDISKSPTPHDVLPLKSSPKGNGMVSHGDGNHSKSSIGISLREFLRSSYAKREKRHGLCLFRQLVELVDSAHSKRLFLLDLRPSLFTLVPSKKLRYIGNFGKNDLESDVDEDLNRRRPVVEESSSGGRDSKKRKMDLHLNSPGNQLQATSTGRPFKRKSPVIDLNMVDARNPDSCELQQQDYIKNLSVSSVSRKQSMSTWLEEQWYTCPEEINGEDIGEKSNIYALGVLLFELLCHCESGEMHAAMMADLRHRILPPTFLSKYPKEAGFCLWLLHPEPSSRPSARDILKSELICEDDSVKSTAAAEEISELLLHFLSSLEVQKKKKASKLLQDIQTLEDDIKEAERRYSSNVSLVRSHGAIEKRVQSSPLDEHCTTSSALFVPTANTDRLMSNIRQLEDAYFFMRSQINLSSSAATARSDKTLKDRDRCSENQNENQDMSTKGKSSDQLEVFFEGLCKFARYSKFETCGTIRSGDLLNSASVVCSLSFDPDEEHIAAAGISKKIKIFDFNAFMNESVGVHYPLVEMVNKSKLSCVCWNSYIKNYLASTDYDGVVQIWDAGTGQGFSQYTEHQKRAWSVDFSPSDPTKFVSGSDDCSVKLWSINEKRSLGTIWSPANVCCVQFSSYSNHLLAFGSADYKVYCYDLRYVKTPWCTLAGHEKAVSYVKFMDSETIVSASTDNSLKLWNLNKTNSSGLSPGACSLTYKGHTNQKNFVGLSVLDGYIACGSETNEVYSYYKSLPMPMTSYKFGSVDPISGNEYFDDNGQFVSSVCWRKKSNMLVAANSTGNMKLLKLV
In the case of B1, the binding is reported as “no binding (only tissue harvested at ZT5)”.
